According to patent US20100291108A1:
No constants are given. Whether binding was seen depends on the method and setting. Some results given as binding are weak or reduced against the parent protein; the word gives no strength.

Sequences of proteins named here, by UniProt entry; tags and fusion partners are left off. A change or cut given only in a name is not applied to a line headed by its entry.
UniProt Q8TDQ1: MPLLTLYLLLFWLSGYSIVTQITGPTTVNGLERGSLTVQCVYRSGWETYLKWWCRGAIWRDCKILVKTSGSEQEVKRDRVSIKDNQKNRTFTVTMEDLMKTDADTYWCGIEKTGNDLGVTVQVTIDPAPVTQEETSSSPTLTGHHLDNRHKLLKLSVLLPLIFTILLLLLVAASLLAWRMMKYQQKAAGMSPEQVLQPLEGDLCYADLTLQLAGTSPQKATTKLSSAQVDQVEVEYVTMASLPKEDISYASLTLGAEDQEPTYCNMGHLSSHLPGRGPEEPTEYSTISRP

Assays:
[1] = target: human IREM-1 (full-length, on cells) (human) (UniProt Q8TDQ1); experiment: flow cytometry of normal human peripheral blood cell populations; FITC-labelled mAb 871.1 according to paragraph 400
[2] = target: human IREM-1 (full-length, on cells) (human) (UniProt Q8TDQ1); experiment: fluorescence microscopy of HEK293 cells stably expressing IREM-1, Alexa488-conjugated antibody bound on ice, then 37 C for 0, 30, 120 min (internalization)
[3] = target: human IREM-1 (full-length, on cells) (human) (UniProt Q8TDQ1); experiment: flow cytometry of leukemia cell lines (FAB stages M0 to M7, CML), given as receptor number per cell; FITC-labelled mAb 871.1 according to paragraph 400
[4] = target: human IREM-1 (full-length, on cells) (human) (UniProt Q8TDQ1); experiment: flow cytometry of AML patient blasts and CD34+/CD38- AML stem cells with an anti-IREM-1 antibody; FITC-labelled mAb 871.1 according to paragraph 400

Measured: binding

B1: chimeric anti-IREM-1 monoclonal antibody 871.1 (antibody, human IgG1, V domains shown)
VH: EVKLVESGGGLVQPGGSLSLSCAASGFTFTDYYMSWVRQPPGMAPEWLGFIRNKANGYTTEYSASVKGRFTISRDDSQSILYLQMNALRAEDSATYYCAREDYGSSWGYYAMDCWGQGTSVTVSS
VL: DIVMTQSQKFMSTSVGDRVSVTCKASQNVDTNVAWYQQKPGQSPKALLYSASYRHSGVPDRFTGSGSETDFTLTITNVQSEDLAEYFCQQYNSFPLTFGSGTKLEIRR
binds: [1] | [2] | [3] | [4]
